Reference: paper PMC10575922
These are yes or no findings as the source states them, for the method shown. In cells and extracts the contact can be indirect. Some results given as binding are weak or reduced against the parent protein; the word gives no strength. Where a sequence is shown, tags or fusion partners need not be part of it.

The chains behind the UniProt entries cited, without tags or fusion partners.
UniProt P35580: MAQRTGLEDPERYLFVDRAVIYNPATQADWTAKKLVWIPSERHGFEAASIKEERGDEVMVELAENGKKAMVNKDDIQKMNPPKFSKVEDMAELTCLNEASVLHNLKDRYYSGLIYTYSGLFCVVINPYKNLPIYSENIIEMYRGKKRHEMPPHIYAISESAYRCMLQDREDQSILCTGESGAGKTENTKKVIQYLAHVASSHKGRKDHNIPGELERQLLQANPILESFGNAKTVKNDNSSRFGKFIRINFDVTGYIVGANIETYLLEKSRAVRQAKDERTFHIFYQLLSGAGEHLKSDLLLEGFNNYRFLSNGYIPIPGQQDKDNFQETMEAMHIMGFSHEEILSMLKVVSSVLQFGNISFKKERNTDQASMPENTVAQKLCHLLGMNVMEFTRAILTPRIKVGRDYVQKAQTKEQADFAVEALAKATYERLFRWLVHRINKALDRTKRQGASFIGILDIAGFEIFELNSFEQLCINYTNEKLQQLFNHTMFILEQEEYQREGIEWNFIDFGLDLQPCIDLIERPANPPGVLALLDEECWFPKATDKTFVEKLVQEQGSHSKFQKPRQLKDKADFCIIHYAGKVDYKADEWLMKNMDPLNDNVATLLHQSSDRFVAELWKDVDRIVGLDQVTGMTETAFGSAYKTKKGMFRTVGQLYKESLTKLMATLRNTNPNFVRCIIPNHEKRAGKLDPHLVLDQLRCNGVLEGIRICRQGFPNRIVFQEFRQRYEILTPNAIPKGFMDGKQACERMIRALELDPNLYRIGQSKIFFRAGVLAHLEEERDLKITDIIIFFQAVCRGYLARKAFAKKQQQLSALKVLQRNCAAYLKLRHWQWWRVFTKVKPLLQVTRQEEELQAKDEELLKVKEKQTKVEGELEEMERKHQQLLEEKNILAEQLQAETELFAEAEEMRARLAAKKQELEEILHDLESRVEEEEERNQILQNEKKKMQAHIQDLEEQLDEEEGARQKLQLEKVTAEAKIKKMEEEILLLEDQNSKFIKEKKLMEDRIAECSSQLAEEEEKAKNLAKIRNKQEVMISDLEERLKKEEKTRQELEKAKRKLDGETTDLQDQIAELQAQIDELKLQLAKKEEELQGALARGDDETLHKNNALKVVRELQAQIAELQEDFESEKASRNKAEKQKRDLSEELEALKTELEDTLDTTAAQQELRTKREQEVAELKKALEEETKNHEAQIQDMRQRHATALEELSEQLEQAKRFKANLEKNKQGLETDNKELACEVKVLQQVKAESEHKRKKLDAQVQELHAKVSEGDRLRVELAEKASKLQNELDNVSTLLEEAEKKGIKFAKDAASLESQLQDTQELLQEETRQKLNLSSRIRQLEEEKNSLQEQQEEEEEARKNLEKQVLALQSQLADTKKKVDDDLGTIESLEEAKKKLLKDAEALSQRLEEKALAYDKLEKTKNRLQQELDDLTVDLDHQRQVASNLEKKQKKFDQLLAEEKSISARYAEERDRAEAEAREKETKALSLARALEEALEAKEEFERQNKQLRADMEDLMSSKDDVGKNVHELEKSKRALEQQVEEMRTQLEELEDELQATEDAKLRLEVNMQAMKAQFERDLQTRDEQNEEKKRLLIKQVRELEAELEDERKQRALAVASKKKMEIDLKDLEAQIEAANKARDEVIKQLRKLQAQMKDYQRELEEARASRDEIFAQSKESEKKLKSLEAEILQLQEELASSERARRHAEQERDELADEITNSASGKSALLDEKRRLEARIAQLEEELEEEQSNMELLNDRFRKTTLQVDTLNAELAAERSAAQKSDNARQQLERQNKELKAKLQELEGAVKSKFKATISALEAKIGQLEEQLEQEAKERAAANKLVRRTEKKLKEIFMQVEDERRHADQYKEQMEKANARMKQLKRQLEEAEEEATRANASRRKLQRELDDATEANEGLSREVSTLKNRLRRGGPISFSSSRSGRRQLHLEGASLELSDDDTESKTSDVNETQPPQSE

Target: T1, EGFP-tagged wild-type PKP2 (human) (UniProt Q99959)
T1 sequence: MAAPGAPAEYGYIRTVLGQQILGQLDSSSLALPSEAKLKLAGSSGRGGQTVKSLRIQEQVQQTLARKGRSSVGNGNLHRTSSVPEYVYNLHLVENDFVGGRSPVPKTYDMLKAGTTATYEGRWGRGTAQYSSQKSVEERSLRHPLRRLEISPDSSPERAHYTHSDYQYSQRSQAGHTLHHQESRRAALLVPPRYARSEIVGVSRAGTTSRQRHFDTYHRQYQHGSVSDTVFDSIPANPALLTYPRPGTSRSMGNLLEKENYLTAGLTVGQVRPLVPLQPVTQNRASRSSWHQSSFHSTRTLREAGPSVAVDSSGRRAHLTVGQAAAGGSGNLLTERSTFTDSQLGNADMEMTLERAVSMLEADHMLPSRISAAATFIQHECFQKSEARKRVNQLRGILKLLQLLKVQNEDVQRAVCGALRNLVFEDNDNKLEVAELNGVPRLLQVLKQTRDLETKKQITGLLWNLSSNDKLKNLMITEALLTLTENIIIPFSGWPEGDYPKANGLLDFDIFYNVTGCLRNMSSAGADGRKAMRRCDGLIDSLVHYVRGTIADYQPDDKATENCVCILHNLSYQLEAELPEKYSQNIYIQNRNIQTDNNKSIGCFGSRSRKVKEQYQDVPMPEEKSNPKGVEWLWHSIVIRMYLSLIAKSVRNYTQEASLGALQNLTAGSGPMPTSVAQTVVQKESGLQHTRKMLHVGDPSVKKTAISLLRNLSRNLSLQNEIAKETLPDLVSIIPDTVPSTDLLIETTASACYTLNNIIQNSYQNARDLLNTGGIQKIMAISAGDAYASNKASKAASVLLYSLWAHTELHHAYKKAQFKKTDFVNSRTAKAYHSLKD
Experiment: co-IP; HEK293T lysate in NP-40 buffer (150 mM NaCl, 50 mM Tris-HCl pH 8.0, 1% NP-40); rat IgG1 anti-EGFP on Dynabeads A, 1 mg protein, overnight at 4 °C; western blot for MYH10 and EGFP

binding: binds
Substance: myosin 10 (MYH10) (from UniProt P35580 1-1976)
